# Results published in PubChem BioAssay AID493014 (National Center for Advancing Translational Sciences (NCATS), 2011).
# The campaign covered roughly 340,000 compounds. About 170 (0.05%) were called active. Inconclusive results, whose numbers are uncertain, are shown with a selection of clear calls. Calls follow the shape of the dose curve; as a rule, active = well fitted inhibition curve with a large enough effect in the signal ratio, with a control signal flat (not every such curve was filed as active); inconclusive = small, poorly fitted or top-dose-only effect, or effect the other way, or a change in a side signal; inactive = flat fitted curve, though single readings scatter; the % refers to the signal ratio. A potency beside an inconclusive call is a rough fit, not a confirmed value.
# Experiment: qHTS Assay to Find Inhibitors of Chronic Active B-Cell Receptor Signaling;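 as to activity change, negative = inhibition: plate controls were basal doxycycline-induced cells for no effect and cells given 10 µM MG132 for full effect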
# Conditions: ABC-DLBCL IkBa-CBG/CBR reporter, luminescence ratio (green luciferase fused to IkBa over red control in TMD8 lymphoma cells), 4 h; activity change, negative = inhibition: at 46.1 µM (top of the series)
# Summary of the method: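 Concentration-response series (up to 46 uM) were applied to TMD8 dual-reporter cells for 4 h at 37C with doxycycline. Green/red ratio, after filter-overlap correction, defined %Activity; red signal alone was normalised to basal cells and zero luminescence.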
# Potency is read from the fitted curve at half-maximal effect.
SMILES,"activity change, negative = inhibition",Potency
O=S(=O)(NCc1ccccc1)c1ccc(F)cc1Br,inconclusive: 1.35%,–
O=[N+]([O-])c1cccc2ccc(/C=C/c3ccc(F)cc3)nc12,inconclusive: 0.89%,–
CCOCCOC(=O)c1ccc(NC(=O)C2COc3ccccc3O2)cc1 (stereo unspecified),inactive: -1.21%,–
Cc1cc(S(=O)(=O)N2CCCC2)ccc1OCC(=O)NC1CCCC1,–,"inconclusive: 3.55 µM [rising, single point]"
Cc1cccc(-c2noc(Cc3ccccc3)n2)c1,inconclusive: 4.65%,–
CCOC(=O)c1ccc(NC(=O)C2COc3ccccc3O2)cc1 (stereo unspecified),inconclusive: 14.6%,–
COc1ccc(NC(=O)c2cc(Br)c(Br)s2)cn1,–,"inconclusive: 35.5 µM [falling, single point]"
Cc1cccc(NC(=O)/C=C/c2cccs2)n1,–,"inconclusive: 31.6 µM [rising, single point]"
CCCn1nc(NC(=O)C(C)(C)C)c2cc3cc(OC)ccc3nc21,inconclusive: 6.95%,–
CCOC(=O)c1c(S(=O)(=O)NCC(=O)Nc2ccc(C)c(Cl)c2)c(C)n(C)c1C,inconclusive: 1.29%,–
CCCCOC(=O)c1ccc(NC(C)=O)cc1,inconclusive: 1.91%,–
NCC(c1ccccc1Cl)c1c[nH]c2ccccc12 (stereo unspecified),inconclusive: -7.08%,–
Clc1ccc(Nc2nc(-c3cccs3)cs2)nc1,–,"inconclusive: 25.9 µM [rising, single point]"
Cc1ccc(S(=O)(=O)CCc2nnc(NC(=O)c3ccccn3)s2)cc1,inactive: -2.93%,–
COCCCNC(=S)N(Cc1cccnc1)Cc1ccc(OC)c(OC)c1,inconclusive: -0.653%,–
O=C(Nc1cccnc1)c1cc(-c2ccc3c(c2)OCO3)on1,–,"inconclusive: 3.16 µM [falling, full curve]"
CC1=NN(C(=O)c2ccc(Cn3cc([N+](=O)[O-])cn3)cc2)C(O)(C(F)(F)F)C1 (stereo unspecified),inactive: -0.311%,–
CC(=O)c1c(COC(=O)c2ccccc2Cl)nc2ccccc2[n+]1[O-],–,"inconclusive: 22.4 µM [falling, single point]"
CN(CC#CC(O)(c1ccccc1)c1ccccc1)C(C)(C)C,–,"inconclusive: 5.01 µM [falling, partial curve, poor fit]"
Nc1ccc(S(N)(=O)=O)cc1N,–,"inconclusive: 1.78 µM [rising, full curve, poor fit]"
Cc1cccc2c1-c1sc(C(=O)Nc3cccnc3)cc1CO2,–,"inconclusive: 22.4 µM [falling, partial curve]"

SMILES,"activity change, negative = inhibition",Potency
O=c1[nH]c2cc3c(cc2cc1CN(CCc1ccccc1)Cc1nnnn1CC1CCCO1)OCO3 (stereo unspecified),inconclusive: 5.37%,–
C/C(N)=C(/C#N)C(=O)CSc1cc(C)c2ccccc2n1,inconclusive: -16.3%,–
CN1CCCNc2nc3ccccc3nc21,inconclusive: 10.1%,–
CC(=O)c1ccc(N/C=C\C(=O)c2ccc(C)cc2)cc1,inconclusive: 6.06%,–
COc1ccccc1C(=O)NC(=S)N1CCc2ccccc21,–,"inconclusive: 11.2 µM [falling, single point]"
c1ccc(N2CCN(c3ncnc4[nH]ncc34)CC2)cc1,inconclusive: -11.6%,–
CC1CCc2c(sc(NC(=O)c3ccco3)c2C(=O)O)C1 (stereo unspecified),–,"inconclusive: 0.708 µM [rising, partial curve, poor fit]"
COc1ccccc1N/C=C1/Sc2cc(Cl)ccc2NC1=O,inconclusive: -21.9%,–
CCN(CC(=O)Nc1ccc(NC(C)=O)cc1)C(=O)COc1ccccc1-c1ccccc1,–,"inconclusive: 25.9 µM [falling, partial curve, poor fit]"
COc1ccccc1CN1CCN(C(CC(C)C)c2nnnn2Cc2cccs2)CC1 (stereo unspecified),inconclusive: 0.0671%,–
c1ccc(N2CCN(C3CCSC3)CC2)cc1 (stereo unspecified),inconclusive: 14.5%,–
CC(NC(=O)Nc1ccccc1O)(C(F)(F)F)C(F)(F)F,–,"inconclusive: 20.6 µM [falling, partial curve]"
CCc1cc2c(=O)nc3n(c2s1)Cc1ccccc1/C3=C(/O)c1ccc(F)cc1,inconclusive: 1.01%,–
COCCNC(=O)CN1CCC(NC(=O)c2ccco2)CC1,–,"inconclusive: 5.62 µM [rising, partial curve]"
CCN(CC)CCN(Cc1cc2cc(C)c(C)cc2[nH]c1=O)C(=S)NCc1ccco1,–,"inconclusive: 11.2 µM [falling, partial curve]"
Cc1cc2nc(-c3ccc(SCC(=O)NC(C)C)nc3)[nH]c2cc1C,inactive: 10.4%,–
O=C1COc2ccc(S(=O)(=O)NCCc3ccccc3)cc2N1,inconclusive: -5.2%,–
Cc1ccc(-n2cccn2)c(CN2CCCC(CNC(=O)c3ccc(F)cc3)C2)c1 (stereo unspecified),inactive: -3.2%,–
CCOC(=O)c1cc(-c2ccc(OC)cc2)nn1-c1ccc(C(=O)O)cc1,inconclusive: -12.5%,–
COc1cccc(NC(=O)c2ccccc2)c1,–,"inconclusive: 23.1 µM [falling, single point]"
O=S(=O)(c1cccc(C(F)(F)F)c1)N1CCN(CC(O)COCc2ccccc2)CC1 (stereo unspecified),inconclusive: -0.256%,–

# Some values from above.
# Entry for `C/C(N)=C(/C#N)C(=O)CSc1cc(C)c2ccccc2n1` under activity change, negative = inhibition: inconclusive: -16.3%
# Entry for `Cc1cccc(NC(=O)/C=C/c2cccs2)n1` under Potency: inconclusive: 31.6 µM [rising, single point]
# Entry for `COCCCNC(=S)N(Cc1cccnc1)Cc1ccc(OC)c(OC)c1` under activity change, negative = inhibition: inconclusive: -0.653%
# Entry for `CCOCCOC(=O)c1ccc(NC(=O)C2COc3ccccc3O2)cc1` (stereo unspecified) under activity change, negative = inhibition: inactive: -1.21%

# Later entries.

SMILES,"activity change, negative = inhibition",Potency
c1ccc(CSc2nnc3c4ccccc4c4ccccc4c3n2)cc1,–,"inconclusive: 0.631 µM [falling, partial curve, poor fit]"
O=C(CCSc1ccc(F)cc1)NNC(=O)c1ccccc1Cl,inactive: 3.48%,–
COc1cccc(C(=O)N2CCN(Cc3cn[nH]c3-c3ccc(F)cc3F)CC2)c1,inconclusive: -22.5%,–
CCCCCc1ccc(CC(=O)Nn2c(C)nc3ccccc3c2=O)cc1,inconclusive: 8.04%,–
COC(=O)c1cc(OC)c(OC)cc1NC(=O)c1cnccn1,inconclusive: -3.99%,–
C=CCN=C1NN=C(c2ccc3c(c2)OCCO3)CS1,inconclusive: -0.545%,–
NS(=O)(=O)c1ccc(NC(=O)c2cc(-c3ccccc3O)n[nH]2)cc1,inactive: -11%,–
Cc1ccc(C)c(OCCC(=O)OCC(=O)Nc2ccc(Cl)cn2)c1,inactive: -2.1%,–
CCn1c(SCC(=O)Nc2cc(C)on2)nc2c1c(=O)n(C)c(=O)n2C,inconclusive: 4.75%,–
O=C(Nc1sc2c(c1C(=O)O)CCC2)c1ccccc1,–,"inconclusive: 1.64 µM [rising, partial curve, poor fit]"
CCOc1ccc(/C(O)=C2/C(=O)C(=O)N(c3ncccn3)C2c2ccccc2)cc1 (stereo unspecified),inactive: 9.9%,–
O=C(c1ccco1)N(CCC(c1ccccc1)c1ccco1)Cc1ccco1 (stereo unspecified),inactive: 4.76%,–
CCCNc1c(NS(=O)(=O)c2ccc3c(c2)CCCC3)c(=O)oc2ccccc12,inconclusive: -9.57%,–
CCn1c(SCC(=O)NCCOC)nc2sc3c(c2c1=O)CCCC3,inconclusive: -4.72%,–
Cn1c(Cl)nc2c1c(=O)n(Cc1cccc(Br)c1)c(=O)n2C,–,"inconclusive: 18.4 µM [rising, partial curve, poor fit]"
Cc1cccn2c(=O)c(C(=O)NCCc3ccc(Cl)cc3)cnc12,inactive: 13.8%,–
Cc1cc2ncn(C(=O)N3CCCCCC3)c2cc1C,inconclusive: 13.5%,–
O=C(NCCN1CCOCC1)c1ccc(NS(=O)(=O)c2cccc([N+](=O)[O-])c2)cc1,inactive: 5.1%,–
Cc1ccc(Nc2ccc([N+](=O)[O-])cn2)cc1Cl,inconclusive: 13.6%,–
CCc1ccccc1N1C(=O)N(Cc2cccc(Cl)c2)c2ccccc2S1(=O)=O,–,"inconclusive: 6.31 µM [falling, single point]"
CC(C)(C)c1ccc(-n2ncc3c2CCCC3NC(=O)C2=NNC(=O)CC2)cc1 (stereo unspecified),inactive: -11.7%,–

SMILES,"activity change, negative = inhibition",Potency
CCCOc1ccccc1OCC(=O)Nc1cccc(S(=O)(=O)NC2=NCCC2)c1,–,"inconclusive: 9.2 µM [falling, partial curve, poor fit]"
O=C(NCCc1ccccc1)c1cc2ncc(Br)cn2n1,inconclusive: 5.83%,–
CCOc1ccccc1NC(=O)CSc1nnnn1C1CCCC1,–,"inconclusive: 15.8 µM [falling, single point]"
O=[N+]([O-])c1ccccc1N/N=C1\CCc2ccccc21,inconclusive: 27.4%,–
CCCCN(CCCC)CCNC(=O)c1cn(CC)c2ccc(S(=O)(=O)N3CCCC3)cc2c1=O,inactive: 2.21%,–
COc1ccc(C(=O)NC(=S)N(Cc2ccccc2)Cc2ccccc2)cc1,inconclusive: 0.148%,–
O=C(Nc1ccncc1)Nc1ccc(Cl)cc1Cl,inactive: 2.6%,–
CCc1ccccc1NC(=S)N1CCC(C(=O)c2ccc(F)cc2)CC1,inconclusive: 2.19%,–
CN(C)CCCn1c2c(c(SCC(=O)Nc3ccc4c(c3)OCCO4)nc1=O)CCC2,inconclusive: -27.6%,–
COc1ccc(Nc2nc(C)cc(=O)[nH]2)c(OC)c1,–,"inconclusive: 25.9 µM [falling, partial curve, poor fit]"
COc1ccc(F)cc1S(=O)(=O)N1CCC2(CC1)OCCN2S(=O)(=O)c1cccs1,inconclusive: -13.6%,–
CCOC(=O)CC1(C)SC(NC(C)=O)=NN1C(C)=O (stereo unspecified),inconclusive: -3.67%,–
COc1ccc(S(=O)(=O)NC2CCCCCC2)c(OC)c1,inactive: -0.592%,–
COc1ccc(N(CC(=O)N2CCCC(C)C2)S(=O)(=O)c2c(C)nn(C)c2C)cc1 (stereo unspecified),inconclusive: 0.0961%,–
COC(=O)c1cccc(Nc2c(-c3cc(Br)ccc3O)nc3nc[nH]n23)c1,inconclusive: -27.1%,–
COc1ccc(C2=NN(C(=O)CSc3nnc(-c4ccccc4F)o3)C(c3ccco3)C2)cc1 (stereo unspecified),inconclusive: -1.05%,–
Cc1cc(C)cc(OCC(=O)Nc2ccc(-c3nc4ncccc4o3)cc2C)c1,–,"inconclusive: 11.2 µM [rising, partial curve, poor fit]"
O=C(CSc1n[nH]c(-c2ccccc2)n1)c1ccc(O)c(O)c1,–,"inconclusive: 35.5 µM [falling, single point]"
